In publication doi:10.1101/196097 one finds binding data, which are given here for one substance.

Amino acid sequences for entries named in this document (tags omitted). Residues count along the entry.
UniProt A0A3L7I2I8, residues 177-389: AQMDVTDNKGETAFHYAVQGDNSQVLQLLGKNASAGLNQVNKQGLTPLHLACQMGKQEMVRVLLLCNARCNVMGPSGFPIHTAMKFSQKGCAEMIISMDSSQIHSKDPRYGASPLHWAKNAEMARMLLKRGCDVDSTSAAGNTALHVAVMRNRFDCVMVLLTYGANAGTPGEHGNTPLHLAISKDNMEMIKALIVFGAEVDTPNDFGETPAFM

No constants are given. Whether binding was seen depends on the method and setting.

The assay addresses MBP-tagged ANK domain (177-389) of iPLA2β (Chinese hamster (cloned from CHO cells)). The experiment in a line: AUC.

Take “MBP-tagged ANK domain (177-389) of iPLA2β (from UniProt A0A3L7I2I8 177-389) (domain or fragment)”: the binding entry is “no binding”.
